No constants are given. Whether binding was seen depends on the method and setting. Some results given as binding are weak or reduced against the parent protein; the word gives no strength.

The chains behind the UniProt entries cited, without tags or fusion partners. Residues count along the entry.
UniProt P15328, residues 25-234: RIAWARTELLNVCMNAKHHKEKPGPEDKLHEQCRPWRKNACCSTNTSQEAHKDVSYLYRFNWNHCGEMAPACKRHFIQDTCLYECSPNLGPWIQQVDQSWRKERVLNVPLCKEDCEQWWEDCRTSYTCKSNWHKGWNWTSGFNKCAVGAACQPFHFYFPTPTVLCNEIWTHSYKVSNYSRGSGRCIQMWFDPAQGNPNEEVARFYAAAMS

For assay [1], the target named is Recombinant human folate receptor alpha (FRα) (human) (UniProt P15328). Description: ELISA; phage ELISA: recombinant FRα coated on 96-well plates (100 µL, 10 µg/mL, 0.05 M sodium bicarbonate pH 9.6), blocked with 3% BSA; 10^10 amplified phages per well, 2 h at 37 °C; detected with HRP-conjugated anti-M13 antibody, absorbance at 450 nm; compared with wild-type M13; only the target purified.

Assay [2] addresses Native human folate receptor alpha (FRα) on SKOV3 cells (human (endogenous in SKOV3)) (UniProt P15328). Description: ELISA; cell-based ELISA: SKOV3 cells (FRα positive) and HepG2 cells (FRα negative control) in 96-well plates, fixed with 4% paraformaldehyde, blocked with 3% BSA; 10^10 individual phages per well, 2 h at 37 °C; detected with HRP-conjugated anti-M13 IgG. (In general: In an ELISA, binding on a coated surface is turned into a signal by an enzyme label.)

B1: Phage clone A3 (peptide)
peptide: LGISATNAYARH
In the case of B1, the binding result in assay [1] is “binds”.

B2: Phage clone C7 (peptide)
peptide: MHTAPGWGYRLS
notes: dodecapeptide selected by phage display; printed in three-letter code; the synthetic FITC peptide is m18; also called C7 phage clone; source: M13 phage clone from the Ph.D.-12 library, amplified in E. coli ER2738; purified phage for flow cytometry
For the molecule B2, the binding result in assay [2] and in assay [1] was “binds” each time.

B3: Phage clone G9, D5 (peptide)
peptide: VHWDFRQWWQPS
With B3, the binding result in assay [1] is “binds”.

B4: Phage clone G8 (peptide)
peptide: YTNPYYSSHTRN
notes: dodecapeptide selected by phage display; printed in three-letter code; source: M13 phage clone from the Ph.D.-12 library, amplified in E. coli ER2738; purified phage for flow cytometry
Turning to B4, the binding result in assay [2] and in assay [1] was “binds” in each case.

B5: Phage clone A7 (peptide)
peptide: ASVLDYKGFFQR
Take B5: the binding result in assay [1] is listed as “binds”.

B6: Phage clone A12 (peptide)
peptide: TAAQWFPSLSNN
B6: in assay [1], the binding entry is recorded as “binds”.

B7: Phage clone B8/H1/G4 (peptide)
peptide: GALLPSMNKGHW
notes: as for B4
Regarding B7, the binding result in assay [2] and in assay [1] was “binds” in each case.

B8: Phage clone H11 (peptide)
peptide: RGMDTLWHHAYH
Regarding B8, the binding result in assay [1] is given as “binds”.

B9: Phage clone B7 (peptide)
peptide: WSAATVPRGFHA
With B9, in assay [1], the binding entry is “binds”.

B10: Phage clone A4 (peptide)
peptide: FSQATGRSPTTL
Consider B10, for which, in assay [1], the binding result was “binds”.

B11: Phage clone G1/G10 (peptide)
peptide: SGVYKVAYDWQH
As for B11, in assay [1], the binding entry is “binds”.

B12: Phage clone G12 (peptide)
peptide: MNPYPRTPWPHV
notes: as for B4
On to B12, for which the binding result in assay [2] and in assay [1] was “binds” throughout.

B13: Phage clone B1 (peptide)
peptide: NWQPTAGLKPLH
Consider B13, for which the binding result in assay [1] was “binds”.

B14: Phage clone C1 (peptide)
peptide: SNSDAYALQFLR
As to B14, in assay [1], the binding result is listed as “binds”.

B15: Phage clone E9 (peptide)
peptide: FFPLTFPWTYYD
In the case of B15, in assay [1], the binding entry is recorded as “binds”.

The values above are taken from article PMC5976665, “Identification of a peptide for folate receptor alpha by phage display and its tumor targeting activity in ovary cancer xenograft” (Scientific Reports, 2018).
